Screen size: about 300,000 compounds; about 3,700 (1.2%) were called active. Inconclusive means that the source gave no clear call. Such entries were picked first, then a sample of the others. The call rests on the fitted dose curve; tested in HEK293 cells. Potencies beside an inconclusive call are fits to weak or partial responses and may not hold up.
Assay: qHTS for Inhibitors of binding or entry into cells for Lassa Virus; further: nearly all actives have a fitted effect of over 50% in size
Settings: Lassa virus pseudotype entry inhibition, cell reporter; activity change, negative = inhibition: at 37.9 µM (top of the series) unless noted
On the % scale 0 is the no-effect control and ±100 the full control effect; potency means the concentration at half of the fitted maximal effect.

Compound	activity change, negative = inhibition	Potency
C/C=C/c1ccc(OCC(=O)Nc2cc(Cl)ccc2-n2cncn2)c(OC)c1	inactive: -2.41% [at 46.1 µM]	
CCOC(=O)C1(C(=O)OCC)Cc2ccc(C(C)=O)cc2C1		inconclusive: 0.0008 µM [inhibitor]
CN(C)c1cc(-c2ccc(Br)cc2)oc(=O)c1Cl		inconclusive: 2.82 µM [activator, partial curve, poor fit]
Cc1ccc(NC(=O)c2ccc(-n3cncn3)c([N+](=O)[O-])c2)cc1	inactive: -14.6%	
COc1ccc(NC(=O)c2c(-c3ccc(C)cc3)nnc3ccccc23)cc1OC	inactive: -8.75% [at 46.1 µM]	
COc1ccccc1/C=C/C(=O)NNC(=O)c1cccs1		inconclusive: 10 µM [inhibitor, partial curve]
CCN(C(=O)COC(=O)c1cc(S(=O)(=O)Nc2c(C)n(C)n(-c3ccccc3)c2=O)ccc1Cl)C1CCCCC1		inconclusive: 20 µM [inhibitor, partial curve, poor fit]
COc1ccc(/C=C/C=N/NC(=O)COc2ccc(OC)cc2)cc1		active: 0.794 µM
O=C(CSc1nc2c(c(C(F)(F)F)n1)CCc1ccccc1-2)NCc1ccccc1	inactive: 1.48%	
O=C(Cn1ncc2ccsc2c1=O)N1CCN(c2ccc(Cl)cc2)CC1	inactive: -4.63% [at 46.1 µM]	
COc1cccc(NC(=O)CSc2cc(C)c3ccccc3n2)c1		inconclusive: 5.62 µM [inhibitor, single point]
CN(/N=C/c1ccc(O)cc1O)c1nc(-c2ccccc2)cc(-c2ccccc2)n1	inactive: 3.26%	
COc1cc(CN(C(=S)NCC(=O)NC2CC2)C2CCCC2)cc(OC)c1OC		inconclusive: 1.26 µM [inhibitor, single point]
COc1ccc(/C(C)=N/NC(=O)CCC(=O)Nc2ccc(Cl)cc2Cl)c(OC)c1		inconclusive: 0.103 µM [inhibitor, full curve, poor fit]
COc1ccc(S(=O)(=O)N[C@@H](Cc2ccc(Cl)cc2)C(=O)N2CC[C@@]3(O)CCCC[C@H]3C2)cc1		inconclusive: 6.31 µM [inhibitor, full curve]
O=C(CCC(=O)N1CCC2(CC1)OCCO2)Nc1nnc(C(F)(F)F)s1		inconclusive: 4.61 µM [activator, full curve, poor fit]
CC(C)CNC(=S)N(Cc1ccco1)Cc1cc2cc3c(cc2[nH]c1=O)OCCO3		inconclusive: 17.8 µM [inhibitor, partial curve, poor fit]
N#Cc1ccc(CSc2nnc(-c3cccs3)n2-c2ccccc2)cc1		inconclusive: 29.1 µM [inhibitor, single point]
C=CCn1cc(C(=O)N2CCc3ccccc3C2)c(=O)c2cc(S(=O)(=O)N(CC)CC)ccc21		inconclusive: 14.6 µM [inhibitor, partial curve]
COc1ccccc1NC(=O)c1ccc(NS(=O)(=O)c2c(C)noc2C)cc1		inconclusive: 1.26 µM [activator, single point]
COc1ccc(CN(CC(=O)NC2CCCC2)C(=O)CCC(=O)Nc2cc(C)on2)cc1		inconclusive: 35.5 µM [activator, single point]
CCOC(=O)c1ccc(CN(Cc2ccc(F)cc2)S(=O)(=O)c2ccc(F)c(C(=O)Nc3cc(Cl)ccc3OC)c2)cc1		inconclusive: 3.55 µM [activator, partial curve, poor fit]

Quoted at random: 2 records from the list, in no set order.
Compound	activity change, negative = inhibition	Potency
COc1ccccc1/C=C/C(=O)NNC(=O)c1cccs1		inconclusive: 10 µM [inhibitor, partial curve]
COc1ccccc1NC(=O)c1ccc(NS(=O)(=O)c2c(C)noc2C)cc1		inconclusive: 1.26 µM [activator, single point]

Remaining list, next part:

Compound	activity change, negative = inhibition	Potency
CCN1C(=O)CS/C1=N\S(=O)(=O)c1ccccc1	inactive: -9.54%	
Cc1ccccc1Cn1c2ccccc2c2cnn(CC(=O)NCc3cccc(Cl)c3)c(=O)c21	inactive: -23.8% [at 46.1 µM]	
Cc1cc(S(=O)(=O)NCCc2ccncc2)cc(C)c1F		inconclusive: 3.55 µM [inhibitor, single point]
CCN(CC)c1ccc(NC(=O)COCc2cc(-c3ccc4c(c3)OCO4)on2)c(C)c1	inactive: -11.4% [at 46.1 µM]	
O=C(c1ccccc1Cl)n1nc(-c2ccco2)nc1NCc1cccs1	inactive: 16.4% [at 46.1 µM]	
N#Cc1c(/N=C/c2ccc(O)cc2O)sc2c1C1CCN2CC1	inactive: -2.3%	
COc1ccc(/C=N/Nc2ccc(C(=O)O)cc2)cc1Br		inconclusive: 0.631 µM [inhibitor, full curve, poor fit]
Cc1[nH]n(C(N)=S)c(=O)c1N=Nc1cc(C(F)(F)F)ccc1Cl		inconclusive: 0.891 µM [inhibitor, single point]
CCCCCCC1CC(CSC(=N)N)OC1=O (stereo not drawn)	inactive: -24.7%	
Cc1ccccc1NC(=O)c1cc(C(=O)c2cc(Cl)ccc2O)cn(-c2ccccc2C)c1=O		inconclusive: 18.4 µM [inhibitor, single point]
CC(C)c1c(O)nc(SCCOc2ccc(Cl)cc2)[nH]c1=O		inconclusive: 5.62 µM [inhibitor, partial curve, poor fit]
CCc1ccc(S(=O)(=O)NCCc2cn3ccsc3n2)cc1	inactive: 1.23% [at 46.1 µM]	
Cc1ccc(CS(=O)(=O)Cc2ccc(C(=O)NCc3ccco3)o2)cc1		inconclusive: 4.11 µM [inhibitor, partial curve]
CCN(CC)c1ccc(/C=C(\C#N)c2ccccn2)cc1		active: 5.8 µM
CN(C)c1ccc(C(C(=O)NCc2ccccc2)N(Cc2cccnc2)C(=O)c2snc(C(N)=O)c2N)cc1 (stereo not drawn)		inconclusive: 28.2 µM [inhibitor, single point]
COc1ccc(OC)c(CCNc2ncnc3onc(-c4ccc(Cl)cc4)c23)c1		inconclusive: 7.94 µM [inhibitor, partial curve, poor fit]
COc1cccc(CNCCc2ccccc2)c1OC		inconclusive: 22.4 µM [inhibitor, partial curve, poor fit]
CCCCC(=O)N1c2ccccc2C(C)(c2ccccc2)CC1(C)C (stereo not drawn)		inconclusive: 3.55 µM [activator, single point]
Cc1ccc(CN2CN(S(=O)(=O)c3cccs3)c3nc4ccccc4nc32)cc1		inconclusive: 6.31 µM [activator, full curve, poor fit]
COc1cccc(C2=NO[C@@H]3C(=O)N(c4ccc5c(c4)OCCO5)C(=O)[C@H]23)c1OC	inactive: 8.81%	
CCN1CCN(CC(=O)Nc2c(OC)cccc2OC)CC1		inconclusive: 3.98 µM [inhibitor, single point]

— PubChem BioAssay AID540256 (National Center for Advancing Translational Sciences (NCATS), 2011)
